Measured values from article PMC12370185.
Some of the results follow. At the low end of the ranking, values are background and their order means little.

System: OCT4 + histone octamer
Assay: Pioneer-seq (competitive nucleosome EMSA with sequencing)
Details: 10 mM Tris-Cl pH 7.5, 50 mM NaCl, 1 mM DTT, 0.25 mg/ml BSA, 2 mM MgCl2, 0.025% Nonidet P-40, 5% glycerol; 28 nM nucleosome library; 10 min on ice then 30 min …; high values mean tight binding; double strand, one strand shown

Which binding signal (log2 relative supershift) does the source give for “GATGGACCCTATACGCGGCTGGGATTTGGGAATGATGTGTGTGAATTAGAGAGATTTCGAGACCTGAAATAGAGAAAAGCAAGTTAAGACATCAACTGGGGCCCAGAAACAGCACTACAGCGGGGACGACCCACCTCTCAGATGCCTGGTGAGATAAAGAAAGGTCTGGCTGACTCCACTGCCCAGTACTGTGAAGCAGCAGTGAAGACTTGCCAGTCGGATAGTGTTCC” here?
Its binding signal (log2 relative supershift) is -0.239.

How did the binding signal (log2 relative supershift) turn out when “GATGGACCCTATACGCGGCGAGTAAACCAGTCTGCCTGTGAGAGTATTGACTGTGGTTAAGAATGCGGGATTGTGTTGCAAAGAAGCTCAGGCCTGTAATGTTATCACTCAGCAGGACTGGGTCCCATCAGAAGGCACATGGTGTGCCATGACGTAGCTGGTCTTCGACCACAAAAGCAGACTTTTCTCTGTGAATTAGACAAACCACACTGCCAGTCGGATAGTGTTCC” was run?
The binding signal (log2 relative supershift) was -0.77.

Which binding signal (log2 relative supershift) does the source give for “GATGGACCCTATACGCGGCCCCCAGACCAAGGGCCAACAGGCCCCAGCCTGTACCTCTCAGCTGGGTCCCAGTGAACTTGGGCCTCCAAGGGGCCTTCCCCAGGCACCAGGGGAGGGCAGAGGGCAGGGCTGGGCCTGGACTTGCAGGATGCTCAACAGAGTTTGCCCTACCTAATTCCCACACCCCTCCTCTTGTACTCTTTCCCATCTTGCCAGTCGGATAGTGTTCC” here?
Its binding signal (log2 relative supershift) is -0.679.

Which binding signal (log2 relative supershift) does the source give for “GATGGACCCTATACGCGGCTACCAGAGACTGGACAATTTACAAAAGAAAGTGATTTATTGGACTTAACAGTTCCATGTGGCTGGGGAGGCCTCACAATCACAGTGGAAGGTGAAAGGCAAAAGGCACATCGCACATGGTGGCAGACAGGAGAACAGAGCTTGTGCAGGGAGAATGCCCTTTTACATCATATCTCAAGAGACATATTCACTTGCCAGTCGGATAGTGTTCC” here?
Its binding signal (log2 relative supershift) is -0.019.

Which binding signal (log2 relative supershift) does the source give for “GATGGACCCTATACGCGGCTGAAATTTTCCAGAGTTGCTCGGGGATGTCACTCGAATGGAACATTTGGGAGACTGCCAAGACCCATTTGTCAGCATGTACAGGCCTGCCCTGAGAGACCACAAATGATGGGAACTCTTGAAAGGTCTAGGGCAGTAGCCTCCAAGATAGGTCACTCCTATTCCCTGGATTCACAGCCAGCAAGAGCAGTATGCCAGTCGGATAGTGTTCC” here?
Its binding signal (log2 relative supershift) is -0.207.

Which binding signal (log2 relative supershift) does the source give for “GATGGACCCTATACGCGGCACACATCAGGAAAGATGGCAAGCAGAACGAGAACTAGTGCTACAAAAAGTGATCTCACTGTAACAGCATGGGTGGGCCTGGAAGTCAGTTCTCATGCAACCCCATTAGTTCTAGAAAGTTCTCATATGACTAAGAAAAAGCTGACAGGAATCAAACAGATTTCATCATTAAGCAAACAGAAAACATCAAGTTGCCAGTCGGATAGTGTTCC” here?
Its binding signal (log2 relative supershift) is -0.486.

With “GATGGACCCTATACGCGGCATCAAGGGAAGCAGCCCACTGTGGGCACACTCAGAAAGTATGAGTGAGGGGAGGAGGTGTAGCATGGGGAGAAGAGGCCTGGGGTAGCCCCTGGACAGAAGCCCGCTCCTTTCTGCTCTCTGAGGTGTCCACTGATTCAGCCTGTTGGCCTGGCCAGAACCTGCCCTCTTCATGCCTCGGTTTCCCTGGCTTGCCAGTCGGATAGTGTTCC” as the sequence, how does the binding signal (log2 relative supershift) read?
Its binding signal (log2 relative supershift) is -0.313.

System: SOX2 + histone octamer
Assay: as above
Details: 10 mM Tris-Cl pH 7.5, 50 mM NaCl, 1 mM DTT, 0.25 mg/ml BSA, 2 mM MgCl2, 0.025% Nonidet P-40, 5% glycerol; 28 nM nucleosome library; 10 min on ice then 30 min …; high values mean tight binding; double strand, one strand shown

Which binding signal (log2 relative supershift) does the source give for “GATGGACCCTATACGCGGCTGGTTCTCTCACCCCAGACACACCAGGGCTGATCCAACATATCTGGCTCAACATCACCCACAAGTCTCAACAGGGCCCTGAAAACCACCTCTGACTCCACAACCCACTGTCCCACGCCCTGGGAGGTAGGCTGTGTCTGGGCTTGCTCACGTCTGGGAACAGCAAAGTCTGGCCCAAGCCTGTTCAGCCTGTGCCAGTCGGATAGTGTTCC” here?
The binding signal (log2 relative supershift) was -1.18.

With “GATGGACCCTATACGCGGCCGTGCCTGGAGCTTGGAATTCAGGCCAGAAACCACCAGTGGACACCAGCATTCCACACTCACTGCACAGGCTGGGGCTCAAACCAAGGCCCAGGGACAGGAAGGGACAAGCCCCAGCCCCAGCCGGACTCCCAGCCCACACAAACCATCAGGGCTTGTTTCCTGCTCCATGGAAGCCTCAGACATGTTTCATGCCAGTCGGATAGTGTTCC” as the sequence, how does the binding signal (log2 relative supershift) read?
The binding signal (log2 relative supershift) was -0.695.

Which binding signal (log2 relative supershift) does the source give for “GATGGACCCTATACGCGGCGCAAAGCTCCAGTACCCTCAGGCCACACCTACTGGAAAAATATATGTCAGCCCCAGAAAATTGTGGGCAAGATGAGGCAAGTCCTGAGCAACACAGGAAACTGCCCTCCTCCTTTTCTGGCCCCGCTTCCACTGTGATGCTAAAGATCGCATCAAGGCTGGTCATCCAATCAGCAGGATGTAAGAGGGTCATGCCAGTCGGATAGTGTTCC” here?
Its binding signal (log2 relative supershift) is -0.504.

How did the binding signal (log2 relative supershift) turn out when “GATGGACCCTATACGCGGCAGAGAGCCCAAGACTAGAAATGCCCATATCTTCCCATGGAAAGTGTTCCTCTGATAGGCGGGAGACAGAGGACCAAATTGCAAGTTACAACCTGCAGCCTGGGAGTTTCAGGGGCTTCAACACCAAATGAAATTGGAGAACTATCAACAGGATTCAGGGTTCAGCACAGGCTCCAGCAAGACAGAGAGAAATGCCAGTCGGATAGTGTTCC” was run?
The binding signal (log2 relative supershift) was -0.153.

“GATGGACCCTATACGCGGCTGGGGCTCAGTGTTCTGGGAGAAGTGGGTTCTAGCTCTGCCGCTGGGCCCTGGGTGTGGGCGCCCAATCGTCCGGGAAGCGCCCACAAGCCCAGGCAAGTCCCGACAGCGGTAGCCCGAGCCCAAGCGCTGCGGGCCCGGCGTCCCAGTGACCCCAGTTCCGGGTCCGAGGCACCGCCGGCGGCATCTCCCTGCCAGTCGGATAGTGTTCC” was tested. Which binding signal (log2 relative supershift) did it give?
Its binding signal (log2 relative supershift) is -0.738.

For “GATGGACCCTATACGCGGCGGGTCCCCAGAGAATCTCCAGGCACACAAGTGTCTACCACAGATAAAACATCTGGTGCAGATAAGGGAACCTGCACAGGGGCTTGCCTGGACATGCCAGCAGCAGACTGGAGGCCCACATGCACTGGGGAGCTGGGGTGGAGCCACCAAGAATTCATGCCTTATGCAGAGGAGGAGCCTGGCCTCTTCAGCTGCCAGTCGGATAGTGTTCC”, which binding signal (log2 relative supershift) is on record?
Its binding signal (log2 relative supershift) is -0.665.

For “GATGGACCCTATACGCGGCTTCTCTTTCTCCCTGCCTCCACCAGCCCAGACCCCACCCCACCTCCTGTAAACCAGGGGCAGCAGGGGAGGGACGCTTTGCAGAGCAGTGCAAGTACAGACAAGTGCGTCGCTGAATCTGTGATCAGTGCTGGGGGCCCCTCAGGGCTGCCTGTACCTGGGTGGGGTGGGACATCACCAGCCCATAGCCCATGCCAGTCGGATAGTGTTCC”, which binding signal (log2 relative supershift) is on record?
The binding signal (log2 relative supershift) was -0.699.

For “GATGGACCCTATACGCGGCGAGGAAGAGTCCCAGGGTGATGAGGGTGAGGGTGTGTTCCCTCCCACAATTAATGCCATCACAGTGAGATCTGCCTAATAATAGGATCTCCAGACCCCAGCAAATTGTCTGCTGATCTCAGGCAATGTTTGTCTGTAAGAATCCTTCGCCCTGTGTAAACATTTTATTAGACCATTAAGTTGCCGTCAGCCTGCCAGTCGGATAGTGTTCC”, which binding signal (log2 relative supershift) is on record?
The binding signal (log2 relative supershift) was -0.0494.

How did the binding signal (log2 relative supershift) turn out when “GATGGACCCTATACGCGGCTTAATTCCTCCACTCTTGCAAGTGTACTTAATAGCTCACACAAAGCAAGAAGCATAACCGCAAGAACACAGAGAAGCCTGCCCTGCCAGGTTTATTGTGTGCCTGGCTGCGTGATTATTGTTTTGCATATAACCTCACAGAGGAAATCCTGTGTCAGGCACTTCCAGAGCCTCATGTAGTTTTACTGGATGTGCCAGTCGGATAGTGTTCC” was run?
Its binding signal (log2 relative supershift) is -0.445.

How did the binding signal (log2 relative supershift) turn out when “GATGGACCCTATACGCGGCGATAATTTGGATTTAGGGTAAGGGACAGCGTTGCTCATCTACAGGACCACAAGGGGTTCTGTGCTGCAGGGGCATAAGAAGGAGCATGTGCCATGTGGGGAATGCAGGGAAGCAGGGCAGAGGGACGTAGGAGAGGAAGATTAAGAGCCAAGGGGGAGGGGCAGGCAGGCAGGTCCTTTTCCATCTTTTCATGCCAGTCGGATAGTGTTCC” was run?
Its binding signal (log2 relative supershift) is -0.0472.

“GATGGACCCTATACGCGGCCAATAAGGGTGGTCTGGTGCCTTGCTCCAAAAGGCCTTATCAGTAGACCTGAGACGATGGGCTGGGTTGTCTTCATTAACCTCTGAAAGCATGCCTGGGGAAGAAGGGACCAGCCTGGGCTCCGAAGGCCTCCTCAGAACAAGACCCTGCTTGTCCAAGTGCCTCACTCCCGGGTGGCTTGATTTCCAGGATGCCAGTCGGATAGTGTTCC” was tested. Which binding signal (log2 relative supershift) did it give?
The binding signal (log2 relative supershift) was -0.26.

“GATGGACCCTATACGCGGCAGGGAGGTGTTTGGGGTTTGGACAGCTGCTCCCTCCTTTAGGGCTGACTGTCCCATCAGGAGGGGGTTGTTTCTGTTGCTCAGTGGGGAATCTGCAGGCCTCGACAGGCTCTGAGCTGGGAAACAGGAGTGGCCCTGCCTGTCCTATGACACACTGTGAGTGGAGGGGGCTGTGGCCGGCAGGGACGTAGGTGCCAGTCGGATAGTGTTCC” was tested. Which binding signal (log2 relative supershift) did it give?
The binding signal (log2 relative supershift) was -0.629.

How did the binding signal (log2 relative supershift) turn out when “GATGGACCCTATACGCGGCGCTTGAACTCTGAACCTGGTGGGTTGGTTAAGCCAACAAGGGGAAGGAGTCAGTGGAAGTGGGGTTGGGAAAGGGGGCCTCCATGTGTCTGCACCTGCCTGACACTACCTGCCCCATACCACACCCTCCTGACACTGCCCACCCCTACCCCACCCTCCTGACACTGCCTACCCAATACCCCACCCTCCTGTTGCCAGTCGGATAGTGTTCC” was run?
Its binding signal (log2 relative supershift) is -1.17.

“GATGGACCCTATACGCGGCTGGGATTTGGGAATGATGTGTGTGAATTAGAGAGATTTCGAGACCTGAAATAGAGAAAAGCAAGTTAAGACATCAACTGGGGCCCAGAAACAGCACTACAGCGGGGACGACCCACCTCTCAGATGCCTGGTGAGATAAAGAAAGGTCTGGCTGACTCCACTGCCCAGTACTGTGAAGCAGCAGTGAAGACTTGCCAGTCGGATAGTGTTCC” was tested. Which binding signal (log2 relative supershift) did it give?
Its binding signal (log2 relative supershift) is -0.0493.

With “GATGGACCCTATACGCGGCCCCCAGACCAAGGGCCAACAGGCCCCAGCCTGTACCTCTCAGCTGGGTCCCAGTGAACTTGGGCCTCCAAGGGGCCTTCCCCAGGCACCAGGGGAGGGCAGAGGGCAGGGCTGGGCCTGGACTTGCAGGATGCTCAACAGAGTTTGCCCTACCTAATTCCCACACCCCTCCTCTTGTACTCTTTCCCATCTTGCCAGTCGGATAGTGTTCC” as the sequence, how does the binding signal (log2 relative supershift) read?
Its binding signal (log2 relative supershift) is -0.229.

How did the binding signal (log2 relative supershift) turn out when “GATGGACCCTATACGCGGCTGAAATTTTCCAGAGTTGCTCGGGGATGTCACTCGAATGGAACATTTGGGAGACTGCCAAGACCCATTTGTCAGCATGTACAGGCCTGCCCTGAGAGACCACAAATGATGGGAACTCTTGAAAGGTCTAGGGCAGTAGCCTCCAAGATAGGTCACTCCTATTCCCTGGATTCACAGCCAGCAAGAGCAGTATGCCAGTCGGATAGTGTTCC” was run?
Its binding signal (log2 relative supershift) is -0.214.

“GATGGACCCTATACGCGGCATCAAGGGAAGCAGCCCACTGTGGGCACACTCAGAAAGTATGAGTGAGGGGAGGAGGTGTAGCATGGGGAGAAGAGGCCTGGGGTAGCCCCTGGACAGAAGCCCGCTCCTTTCTGCTCTCTGAGGTGTCCACTGATTCAGCCTGTTGGCCTGGCCAGAACCTGCCCTCTTCATGCCTCGGTTTCCCTGGCTTGCCAGTCGGATAGTGTTCC” was tested. Which binding signal (log2 relative supershift) did it give?
Its binding signal (log2 relative supershift) is -0.65.
